Results are given in words; binding and its absence hold for the method and conditions named. For some assays here: Binding seen in cells or lysates may run through a third protein. Some entries that bind do so weakly or less than the wild type. Tags and fused reporters may be left off the sequences shown.
Assays:
[1] = target: T1, Rho guanine nucleotide exchange factor 37 (ARHGEF37), wild type, Flag-tagged (human) (UniProt A1IGU5); test: far-Western; immunoprecipitated proteins separated by SDS-PAGE and transferred to a PVDF membrane; recombinant Cdc42 added at 3 ug/mL, 4 °C, 18 hours; detected with anti-Cdc42 antibody, reblotted with anti-ARHGEF37 antibody; both purified
T1 sequence: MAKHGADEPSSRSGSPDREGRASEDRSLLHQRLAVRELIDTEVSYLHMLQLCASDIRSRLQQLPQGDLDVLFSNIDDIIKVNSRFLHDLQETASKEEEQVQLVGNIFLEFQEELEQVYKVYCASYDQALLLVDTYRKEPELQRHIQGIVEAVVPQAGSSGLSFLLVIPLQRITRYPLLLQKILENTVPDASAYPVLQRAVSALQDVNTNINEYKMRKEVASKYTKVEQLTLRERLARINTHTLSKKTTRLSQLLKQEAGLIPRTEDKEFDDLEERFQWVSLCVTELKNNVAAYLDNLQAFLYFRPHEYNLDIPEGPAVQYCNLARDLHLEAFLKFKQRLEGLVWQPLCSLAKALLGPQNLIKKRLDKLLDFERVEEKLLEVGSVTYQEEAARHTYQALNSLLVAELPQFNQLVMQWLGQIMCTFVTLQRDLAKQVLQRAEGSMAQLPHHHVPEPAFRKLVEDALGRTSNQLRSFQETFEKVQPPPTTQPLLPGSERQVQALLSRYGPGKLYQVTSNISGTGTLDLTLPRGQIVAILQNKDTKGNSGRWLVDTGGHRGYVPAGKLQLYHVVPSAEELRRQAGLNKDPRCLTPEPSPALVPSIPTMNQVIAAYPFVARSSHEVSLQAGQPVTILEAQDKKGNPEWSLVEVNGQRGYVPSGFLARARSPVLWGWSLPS

Sequences of proteins named here, by UniProt entry; tags and fusion partners are left off.
UniProt P60953: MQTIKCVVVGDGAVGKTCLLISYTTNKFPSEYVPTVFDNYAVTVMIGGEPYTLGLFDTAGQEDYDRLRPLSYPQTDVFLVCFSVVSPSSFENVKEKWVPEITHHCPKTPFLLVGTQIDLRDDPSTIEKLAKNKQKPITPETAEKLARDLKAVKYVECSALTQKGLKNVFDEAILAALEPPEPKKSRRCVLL

[2] = target: T1, Rho guanine nucleotide exchange factor 37 (ARHGEF37), wild type, Flag-tagged (human); test: co-IP; anti-Flag antibody cross-linked to protein G-agarose beads, overnight at 4 °C; lysis buffer 25 mmol/L HEPES pH 7.4, 150 mmol/L NaCl, 1% NP-40, 1 mmol/L EDTA, 2% glycerol; wild-type and serially truncated ARHGEF37 in the indicated cells

Substance | binding [1] | binding [2]
Human recombinant Cdc42 protein (from UniProt P60953 1-191) | binds | –
Cdc42 in cell lysate (co-immunoprecipitation) (from UniProt P60953 1-191) | – | binds

Source: publication PMC9308268
